No constants are given. Whether binding was seen depends on the method and setting. In cells and extracts the contact can be indirect. Some results given as binding are weak or reduced against the parent protein; the word gives no strength.
Target: T1, endogenous Shc of murine cells (NIH 3T3 lysate, primary T cells) (mouse) (UniProt P98083)
T1 sequence (looked up): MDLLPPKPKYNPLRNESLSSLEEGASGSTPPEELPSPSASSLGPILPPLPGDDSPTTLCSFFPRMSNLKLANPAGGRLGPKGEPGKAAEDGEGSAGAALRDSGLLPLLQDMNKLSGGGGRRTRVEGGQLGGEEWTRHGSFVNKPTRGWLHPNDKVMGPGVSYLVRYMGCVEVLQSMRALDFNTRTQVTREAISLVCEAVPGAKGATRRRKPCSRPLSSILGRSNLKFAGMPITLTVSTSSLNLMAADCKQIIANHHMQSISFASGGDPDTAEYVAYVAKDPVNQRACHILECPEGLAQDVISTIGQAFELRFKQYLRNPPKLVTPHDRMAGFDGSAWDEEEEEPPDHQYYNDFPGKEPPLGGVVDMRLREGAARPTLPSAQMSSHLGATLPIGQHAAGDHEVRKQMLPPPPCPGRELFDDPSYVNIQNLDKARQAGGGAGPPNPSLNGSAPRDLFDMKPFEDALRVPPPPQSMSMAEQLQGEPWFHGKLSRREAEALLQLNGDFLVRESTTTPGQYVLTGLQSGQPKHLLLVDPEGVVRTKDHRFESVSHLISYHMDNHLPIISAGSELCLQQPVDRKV
Assay: co-immunoprecipitation from anti-CD3 activated primary mouse T cells, and from CTLA4 deficient T cells

binding: binds
B1: endogenous mPAL from murine cells (P19 cells, primary T cells) (protein)
chain: MADDLRAGGVLEPIAMVPPRPDLAAEKEPASWKEGLFLDADPCSDQGYHANPGATVKTLIPEGKTPFPRIIQTNELLFYERFRAYQDYILADCKASEVKEFTVSFLEKVLEPSGWWAVWHTNVFEVLVEVTNVDFPSLKAVVRLAEPCIYESKLSTFTLANVKELLDLKEFHLPLQELWVVSDDSHEFHQMALAIEHVRFFYKHIWRSWDEEEEDEYDYFVRCVEPRLRLYYDILEDRVPSGLIVDYHNLLSQCEESYRKFLNLRSSLSNCNSDSEQENISMVEGLNLYSEIEQLKQKLKLIENPLLRYVFGYQKNSNIQGKGTRQNGQKVIHVVSSTMKTGLLRSLFKDRFCEESCKEETEIKFHSDLLSGINACYDGDTVIICPGHYVVHGTCSIADSIELEGYGLPDDIVIEKRGKGDTFVDCTGMDVKISGIKFIQHDSVEGILIIHHGKTTLENCVLQCETTGVTVRTSAELFMKNSDVYGAKGAGIEIYPGSKCTLTDNGIHHCKEGILIKDFLDEHYDIPKISMINNVIHNNEGYGVVLVKPTIFCDLQENTQDEINDNMVQKNKEADVTEGLDLEEMLQCVASKMEPYATADFNEQAKGNCEIINELLAISMQKGRMKKRLSELGITQADDNIMSQEMFIEIMGNQFKWNGKGSFGTFLY

Reference: patent publication US6399747
